Source: PubChem BioAssay AID1508588 (Peter MacCallum Cancer Centre, 2020)
Screen: 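Genome-wide search for knock-downs that heighten vemurafenib action in melanoma cells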 (primary screen). Cell system: human WM266.4 melanoma cells (BRAF V600 mutant). Knock-down reagent: siRNA pool against human genes, 40 nM. Duration: 96 h from transfection to read-out. Conditions: vemurafenib 300 nM (about IC25), added 48 h after transfection, for 48 h; comparison arm got DMSO vehicle only. Measurement: 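Ratios to non-targeting siRNA for cell gain, counted as DAPI nuclei after minus before drug and averaged over two replicates, and for absorbance-read medium lactate per cell; both binned into fold-change classes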. Reading the numbers: cell gain with vemurafenib: higher = more cell gain than with non-targeting siRNA; lactate per cell with vemurafenib: higher = more lactate made per cell. Active means: 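Enhancement is called by pairing each knock-down's vehicle-arm and drug-arm fold-change classes for viability or glycolysis; which class combinations qualify is not given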. Meaning of the calls: active = enhances vemurafenib effect; inactive = no enhancement seen.
Shown is one part, drawn at random, of about 18,000 reagents. 790 of all reagents (4.4%) count as active. 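Calls rest on a combination of fold-change classes in drug and vehicle arms, not all shown here.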

ACBD4: cell gain with vemurafenib = 0.88; lactate per cell with vemurafenib = 0.76; activity call = inactive
MTNR1A: cell gain with vemurafenib = 1.06; lactate per cell with vemurafenib = 0.52; activity call = inactive
SLC16A3: cell gain with vemurafenib = 0.14; lactate per cell with vemurafenib = 1.52; activity call = inactive
AKR7A2: cell gain with vemurafenib = 0.74; lactate per cell with vemurafenib = 0.74; activity call = inactive
BMPR1B: cell gain with vemurafenib = 0.86; lactate per cell with vemurafenib = 0.84; activity call = inactive
TRMT61B: cell gain with vemurafenib = 0.51; lactate per cell with vemurafenib = 0.7; activity call = active
MAP1LC3C: cell gain with vemurafenib = 0.74; lactate per cell with vemurafenib = 0.52; activity call = inactive
TCTA: cell gain with vemurafenib = 0.77; lactate per cell with vemurafenib = 0.96; activity call = inactive
OR2A25: cell gain with vemurafenib = 0.67; lactate per cell with vemurafenib = 1.09; activity call = inactive
OR10J5: cell gain with vemurafenib = 0.52; lactate per cell with vemurafenib = 0.91; activity call = inactive
GNL2: cell gain with vemurafenib = 0.46; lactate per cell with vemurafenib = 1.4; activity call = inactive
MEN1: cell gain with vemurafenib = 0.2; lactate per cell with vemurafenib = 0.73; activity call = inactive
MBD3: cell gain with vemurafenib = 0.7; lactate per cell with vemurafenib = 0.55; activity call = inactive
MTMR7: cell gain with vemurafenib = 0.88; lactate per cell with vemurafenib = 0.16; activity call = inactive
CCND1: cell gain with vemurafenib = 0.18; lactate per cell with vemurafenib = 1.44; activity call = inactive
TUBB4A: cell gain with vemurafenib = 0.09; lactate per cell with vemurafenib = 1.29; activity call = inactive
LYPLAL1: cell gain with vemurafenib = 0.85; lactate per cell with vemurafenib = 0.86; activity call = inactive
APOBEC3H: cell gain with vemurafenib = 0.61; lactate per cell with vemurafenib = 1.53; activity call = inactive
INSYN2A: cell gain with vemurafenib = 0.59; lactate per cell with vemurafenib = 1.15; activity call = inactive
PRPSAP2: cell gain with vemurafenib = 0.49; lactate per cell with vemurafenib = 1.08; activity call = inactive
GSDMB: cell gain with vemurafenib = 0.44; lactate per cell with vemurafenib = 0.34; activity call = active

Looked up above.
Result for TUBB4A in “activity call”: inactive
Entry of MTMR7 under “lactate per cell with vemurafenib”: 0.16

Next results follow.
SPATA32: cell gain with vemurafenib = 0.28; lactate per cell with vemurafenib = 0.78; activity call = inactive
CCDC71: cell gain with vemurafenib = 1.19; lactate per cell with vemurafenib = 0.86; activity call = inactive
TRPV1: cell gain with vemurafenib = 0.59; lactate per cell with vemurafenib = 0.92; activity call = inactive
MAB21L1: cell gain with vemurafenib = 0.14; lactate per cell with vemurafenib = 2.09; activity call = inactive
KCNT1: cell gain with vemurafenib = 0.6; lactate per cell with vemurafenib = 0.67; activity call = inactive
NUDT22: cell gain with vemurafenib = 0.56; lactate per cell with vemurafenib = 0.98; activity call = inactive
RHNO1: cell gain with vemurafenib = 0.12; lactate per cell with vemurafenib = 0.14; activity call = active
VASH2: cell gain with vemurafenib = 0.83; lactate per cell with vemurafenib = 0.49; activity call = inactive
MPV17: cell gain with vemurafenib = 0.34; lactate per cell with vemurafenib = 0.4; activity call = inactive
DNLZ: cell gain with vemurafenib = 0.42; lactate per cell with vemurafenib = 0.84; activity call = inactive
GHITM: cell gain with vemurafenib = 0.94; lactate per cell with vemurafenib = 1.26; activity call = inactive
SUPT5H: cell gain with vemurafenib = 0.13; lactate per cell with vemurafenib = 0.55; activity call = active
ANP32A: cell gain with vemurafenib = 0.95; lactate per cell with vemurafenib = 1.13; activity call = inactive
ARHGAP4: cell gain with vemurafenib = 0.88; lactate per cell with vemurafenib = 0.96; activity call = inactive
CCDC43: cell gain with vemurafenib = 1.23; lactate per cell with vemurafenib = 0.62; activity call = inactive
MIPEP: cell gain with vemurafenib = 0.96; lactate per cell with vemurafenib = 0.68; activity call = inactive
BORCS8-MEF2B: cell gain with vemurafenib = 0.98; lactate per cell with vemurafenib = 1.55; activity call = inactive
GBP3: cell gain with vemurafenib = 0.41; lactate per cell with vemurafenib = 0.52; activity call = inactive
ACKR3: cell gain with vemurafenib = 0.38; lactate per cell with vemurafenib = 2.1; activity call = inactive
